Laboratory results published in ChEMBL document CHEMBL1221345, “Cytotoxic flavonoids from the leaves of Cryptocarya chinensis” (J Nat Prod, 2010).

What was measured:
Format in all cases: functional, cell-based
SF-268 = assay: Cytotoxicity against human SF268 cells after 72 hrs by MTS reduction assay; conditions: SF-268, 72 h
NCI-H460 = assay: Cytotoxicity against human NCI-H460 cells after 72 hrs by MTS reduction assay; conditions: NCI-H460, 72 h
MCF7 = assay: Cytotoxicity against human MCF7 cells after 72 hrs by MTS reduction assay; conditions: MCF7, 72 h

Measured: IC50

O=C1C[C@@H](c2ccccc2)Oc2cc(O)ccc21
> 50 µM: SF-268 | NCI-H460 | MCF7
